Experimental data: article PMC4763223

What was measured:
[1] = tested on: Kat1 (GST removed by thrombin) (Kluyveromyces lactis); assay: GEMMA (gas-phase electrophoretic mobility); conditions: 4.0 uM Kat1, 1.4 uM DNA, peaks shifted slightly to higher mass, 100 mM ammonium acetate; recombinant protein
[2] = tested on: GST-Kat1 (Kluyveromyces lactis); assay: EMSA; conditions: 5 mM Mg2+, smear, multimeric complexes, non-specific; EMSA: 50 mM Tris-HCl (pH not given), 0.5 mM EDTA, 1 mM DTT, 100 ug/ml BSA, 7 ng/ul ssDNA, 5 mM MgCl2, 60 min on ice (4 C), ~1.4 nM probe; recombinant protein; protein details: N-terminal GST; label: 32P 5' end; letters put together from the description
[3] = tested on: GST-Kat1-C (Kluyveromyces lactis); assay: EMSA; conditions: 5 mM Mg2+, 5-40 nM; EMSA: 50 mM Tris-HCl (pH not given), 0.5 mM EDTA, 1 mM DTT, 100 ug/ml BSA, 7 ng/ul ssDNA, 5 mM MgCl2, 60 min on ice (4 C), ~1.4 nM probe; recombinant protein; protein details: GST; label: 32P 5' end; letters put together from the description
[4] = tested on: GST-Kat1-N (Kluyveromyces lactis); assay: EMSA; conditions: 5 mM Mg2+, much stronger than full length; EMSA: 50 mM Tris-HCl (pH not given), 0.5 mM EDTA, 1 mM DTT, 100 ug/ml BSA, 7 ng/ul ssDNA, 5 mM MgCl2, 60 min on ice (4 C), ~1.4 nM probe; recombinant protein; protein details: GST; label: 32P 5' end; letters put together from the description
[5] = tested on: GST-Kat1 (Kluyveromyces lactis); assay: competition with a labelled probe; conditions: cold probe competitor 75-300 ng, competed; EMSA: 50 mM Tris-HCl (pH not given), 0.5 mM EDTA, 1 mM DTT, 100 ug/ml BSA, 7 ng/ul ssDNA, 5 mM MgCl2, 60 min on ice (4 C), ~1.4 nM probe; recombinant protein; protein details: N-terminal GST; label: 32P 5' end; letters put together from the description

Sequence: TGAATATATCCATCTTAATCAGACGTATACAGAATTCACC (double strand) [TIR-R 40-bp duplex]
- binding result [1]: binds

Sequence: GACATGGAAAGGAAGACATGGTTGGTCTGATTTCATTAACGTTTCAGGTATACATCAAAATTCAGTGAATTTAATTCTGTCGTTTGAAACCAGTTTAGGTGAAATTGGATTAGGTGGTGAATTGATACATAGTAAATAATTACTGGTCCATAATTTTTGTGAATATTTATGCTCTTTATACTATGTAGTTTTTATCCTGAATATTAACGATTGCTCACCTAAATTTCTCGTTTAAAATCCCTATAATGTGAATGGTTTTAGATGATTCATGGTGTTTTTATTAGTGACCGAAATGTTTAGTTTTGGATACTTGATGATAGAATAAAGAGAAGTGTTATGTAAAAAGTGTTAATTCATGTTAAATTCACTACCTTCTTGAGATTCAATTCACACCATTTGATGGTGAATATATCCATCTTAATCAGACGTATACAGAATTCACCTTCAGATGTGTAAGAGTTTTATGTATTCCAATATGTCATTTGTCAATTTGTCTGCATTTCAAACAAAGGAAAAATAAACTTAAGGACATATATCTGAAAATATACCACATAGATACGTCCCTGTTTTAGATACAGC (double strand) [MATa1-MATa2 intergenic probe (577 bp; 579 bp in Fig S5)]
- binding result [2]: binds
- binding result [3]: no binding
- binding result [4]: binds
- binding result [5]: binds

Construct, isoform or probe ends are uncertain for at least one entry. For some assays here: A negative result means that nothing was seen under these conditions.
